Results reported in patent US8883741B2, “Stimulator of genital, sexual and reproductive function” (Bio Peptid Company Limited, priority 2009, dated 2014).
Not every detail of the peptide structures is certain; ends, links or a residue may be inferred. Where no end group is shown, it is not given here.

Test system: women with a pronounced decrease and absence of libido
Assay: Sexual function on quantified SFW scale, Group IV
Type: in vivo, human
[1] = Group IV n=8, before treatment 0 (0%)
[2] = Group IV n=8, before treatment 2 (25%)
[3] = Group IV n=8, before treatment 2.5
[4] = Group IV n=8, before treatment 2.8
[5] = Group IV n=8, before treatment 6 (75%)
[6] = Group IV n=8, before treatment 8 (100%)

TKPRPGP [heptapeptide, Thr-Lys-Pro-Arg-Pro-Gly-Pro]
Cases with manifestation of the effect (Group IV): 50% | General physical state after sexual acts (n = 33), time for onset of effect (Group IV): 15.0 days | Level of sexual activity (Group IV): did not increase the level of sexual activity | Patients with an increase in orgasm (Group IV): 75% | Size of effect, score on the quantified SFW scale (Group IV): ≤ 1 score | Attitude toward sexual activity, time for onset of effect (Group IV n=8): 10.0 days | Libido, time for onset of effect (Group IV n=8): 10.0 days | Lubrication, time for onset of effect (Group IV n=8): 10.0 days | Mood after sexual acts, time for onset of effect (Group IV n=8): 15.0 days | Onset of orgasm, time for onset of effect (Group IV n=8): 10.0 days | Attitude toward sexual activity score 4 (enjoyment depends on menesis): number of patients (%) after treatment [1]: 4 (50%) | Attitude toward sexual activity score 5 (intense enjoyment): number of patients (%) after treatment [1]: 0 (0%) | General physical state after sex acts score 4 (sensation of a release of arousal): number of patients (%) after treatment [1]: 4 (50%) | General physical state after sex acts score 5 (satisfaction and fatigue): number of patients (%) after treatment [1]: 0 (0%) | Level of sexual activity score 4 (weekly): number of patients (%) after treatment [1]: 4 (50%) | Level of sexual activity score 5 (daily): number of patients (%) after treatment [1]: 0 (0%) | Libido score 2 (yearly): number of patients (%) after treatment [1]: 0 (0%) | Libido score 4 (weekly): number of patients (%) after treatment [1]: 4 (50%) | Libido score 5 (daily): number of patients (%) after treatment [1]: 0 (0%) | Libido score 6 (several times a day): number of patients (%) after treatment [1]: 0 (0%) | Lubrication score 4 (depends on presence of attraction): number of patients (%) after treatment [1]: 4 (50%) | Lubrication score 5 (sets in rapidly): number of patients (%) after treatment [1]: 0 (0%) | Mood after sex acts score 4 (recognition of duty fulfilled): number of patients (%) after treatment [1]: 4 (50%) | Mood after sex acts score 5 (feeling of gratitude toward man): number of patients (%) after treatment [1]: 0 (0%) | Onset of orgasm score 2 (only during erotic dreams): number of patients (%) after treatment [1]: 2 (25%) | Onset of orgasm score 4 (in half of the sex acts): number of patients (%) after treatment [1]: 4 (50%) | Onset of orgasm score 5 (more than 80% of the sex acts): number of patients (%) after treatment [1]: 0 (0%) | General physical state after sex acts score 2 (complete physical indifference): number of patients (%) after treatment [2]: 2 (25%) | Libido score 1 (entirely absent): number of patients (%) after treatment [2]: 2 (25%) | Lubrication score 2 (rarely emerges): number of patients (%) after treatment [2]: 2 (25%) | Mood after sex acts score 2 (escape from obligation): number of patients (%) after treatment [2]: 2 (25%) | Onset of orgasm score 1 (never experienced orgasm): number of patients (%) after treatment [2]: 0 (0%) | Libido, score after treatment [3]: 4.0 points | Onset of orgasm, score after treatment [3]: 4.0 points | Lubrication, score after treatment [4]: 4.0 points | Mood after sexual acts, score after treatment [4]: 4.5 points | Level of sexual activity, score after treatment (Group IV n=8, before treatment 3.0): 4.5 points | Attitude toward sexual activity, score after treatment (Group IV n=8, before treatment 3.5): 4.0 points | General physical state after sex acts score 3 (unfulfilled arousal): number of patients (%) after treatment [5]: 2 (25%) | Libido score 3 (monthly): number of patients (%) after treatment [5]: 2 (25%) | Lubrication score 3 (with protracted stimulation): number of patients (%) after treatment [5]: 2 (25%) | Mood after sex acts score 3 (complete indifference): number of patients (%) after treatment [5]: 2 (25%) | Onset of orgasm score 3 (single occurrences): number of patients (%) after treatment [5]: 2 (25%) | Attitude toward sexual activity score 3 (indifference toward the sex act): number of patients (%) after treatment [6]: 4 (50%) | Level of sexual activity score 3 (monthly): number of patients (%) after treatment [6]: 4 (50%) | Attitude toward sexual activity: patients with onset of effect, number (%) (Group IV n=8, day 1): 0 (0%) | General physical state after sexual acts: patients with onset of effect, number (%) (Group IV n=8, day 1): 0 (0%) | Level of sexual activity: patients with onset of effect, number (%) (Group IV n=8, day 1): 0 (0%) | Lubrication: patients with onset of effect, number (%) (Group IV n=8, day 1): 0 (0%) | Mood after sexual acts: patients with onset of effect, number (%) (Group IV n=8, day 1): 0 (0%) | Onset of orgasm: patients with onset of effect, number (%) (Group IV n=8, day 1): 0 (0%) | Libido: patients with onset of effect, number (%) (Group IV n=8, day 1 of drug administration): 0 (0%) | Attitude toward sexual activity: patients with onset of effect, number (%) (Group IV n=8, day 5): 0 (0%) | General physical state after sexual acts: patients with onset of effect, number (%) (Group IV n=8, day 5): 0 (0%) | Level of sexual activity: patients with onset of effect, number (%) (Group IV n=8, day 5): 0 (0%) | Libido: patients with onset of effect, number (%) (Group IV n=8, day 5): 0 (0%) | Lubrication: patients with onset of effect, number (%) (Group IV n=8, day 5): 4 (50%) | Mood after sexual acts: patients with onset of effect, number (%) (Group IV n=8, day 5): 0 (0%) | Onset of orgasm: patients with onset of effect, number (%) (Group IV n=8, day 5): 4 (50%) | Attitude toward sexual activity: patients with onset of effect, number (%) (Group IV n=8, day 10): 4 (50%) | General physical state after sexual acts: patients with onset of effect, number (%) (Group IV n=8, day 10): 4 (50%) | Level of sexual activity: patients with onset of effect, number (%) (Group IV n=8, day 10): 0 (0%) | Libido: patients with onset of effect, number (%) (Group IV n=8, day 10): 4 (50%) | Lubrication: patients with onset of effect, number (%) (Group IV n=8, day 10): 4 (50%) | Mood after sexual acts: patients with onset of effect, number (%) (Group IV n=8, day 10): 4 (50%) | Onset of orgasm: patients with onset of effect, number (%) (Group IV n=8, day 10): 4 (50%) | Attitude toward sexual activity: patients with onset of effect, number (%) (Group IV n=8, day 15): 4 (50%) | General physical state after sexual acts: patients with onset of effect, number (%) (Group IV n=8, day 15): 4 (50%)
